Assay results as given in patent US20220073650A1.
These are yes or no findings as the source states them, for the method shown. Some results given as binding are weak or reduced against the parent protein; the word gives no strength.

Protein sequences, listed by entry. Tags and fused reporters are not part of them. Lines headed by an entry give the natural chain unless they say otherwise; changes in a name come on top. Chains listed by the source or under a name are the forms on record and can include a tag or linker. Residues count along the entry.
recombinant N-terminal Huntingtin fragment recHTT610 (P42858, residues 1-610): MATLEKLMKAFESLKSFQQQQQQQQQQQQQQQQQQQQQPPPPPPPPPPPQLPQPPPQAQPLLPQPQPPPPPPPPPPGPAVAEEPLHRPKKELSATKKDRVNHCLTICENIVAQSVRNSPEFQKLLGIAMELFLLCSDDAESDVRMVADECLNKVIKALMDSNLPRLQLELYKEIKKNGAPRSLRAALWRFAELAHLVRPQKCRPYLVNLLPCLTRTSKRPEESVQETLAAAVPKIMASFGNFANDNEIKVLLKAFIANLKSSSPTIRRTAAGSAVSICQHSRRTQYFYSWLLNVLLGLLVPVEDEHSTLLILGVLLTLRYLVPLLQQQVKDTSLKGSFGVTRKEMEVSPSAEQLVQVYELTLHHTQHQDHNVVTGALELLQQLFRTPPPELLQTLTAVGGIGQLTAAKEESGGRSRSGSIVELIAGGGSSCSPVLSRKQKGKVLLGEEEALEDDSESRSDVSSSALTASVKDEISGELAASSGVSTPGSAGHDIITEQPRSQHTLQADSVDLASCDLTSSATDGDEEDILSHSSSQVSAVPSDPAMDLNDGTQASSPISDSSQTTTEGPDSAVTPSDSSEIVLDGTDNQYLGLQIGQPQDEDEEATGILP
recombinant mutant HTT with an extended 82 amino acids long poly Q stretch (mutHTT610 Q82) (P42858, form named): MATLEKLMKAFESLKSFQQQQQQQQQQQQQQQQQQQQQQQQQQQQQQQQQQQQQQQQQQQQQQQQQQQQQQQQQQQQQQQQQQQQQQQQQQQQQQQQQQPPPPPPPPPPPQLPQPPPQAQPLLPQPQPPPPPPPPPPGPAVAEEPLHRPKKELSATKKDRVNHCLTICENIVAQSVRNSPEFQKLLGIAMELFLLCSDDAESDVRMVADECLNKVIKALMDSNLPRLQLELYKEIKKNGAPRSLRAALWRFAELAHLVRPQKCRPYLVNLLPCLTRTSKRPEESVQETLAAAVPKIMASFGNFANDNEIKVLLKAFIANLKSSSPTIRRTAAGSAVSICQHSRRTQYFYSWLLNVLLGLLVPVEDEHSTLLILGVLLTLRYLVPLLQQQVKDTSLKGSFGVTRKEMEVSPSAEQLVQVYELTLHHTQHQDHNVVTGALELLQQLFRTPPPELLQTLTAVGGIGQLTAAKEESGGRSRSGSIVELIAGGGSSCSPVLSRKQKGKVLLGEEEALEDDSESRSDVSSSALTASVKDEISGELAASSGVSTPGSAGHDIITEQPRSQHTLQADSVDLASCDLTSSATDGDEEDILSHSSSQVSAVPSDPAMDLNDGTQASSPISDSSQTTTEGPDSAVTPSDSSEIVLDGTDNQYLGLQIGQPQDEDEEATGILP

How the values were obtained:
[1] = molecular target: recombinant N-terminal Huntingtin fragment recHTT610 (human) (UniProt P42858); assay: depletion from spiked human serum by bead-bound antibody
[2] = molecular target: recombinant N-terminal Huntingtin fragment recHTT610 (human) (UniProt P42858); assay: protein capture ELISA, recombinant Huntingtin-specific signal against control extract
[3] = molecular target: recombinant N-terminal Huntingtin fragment recHTT610 (human) (UniProt P42858); assay: depletion from spiked human serum by bead-bound antibody, read by capture ELISA
[4] = molecular target: recombinant N-terminal Huntingtin fragment recHTT610 (human) (UniProt P42858); assay: on-beads ELISA, capture from spiked human serum, anti V5 detection
[5] = molecular target: recombinant N-terminal Huntingtin fragment recHTT610 (human) (UniProt P42858); assay: rec HTT610 capture ELISA with Fab-containing supernatant
[6] = molecular target: recombinant mutant HTT with an extended 82 amino acids long poly Q stretch (mutHTT610 Q82) (UniProt P42858); assay: ELISA on directly coated supernatant of mutHTT610 Q82-expressing HEK cells
[7] = molecular target: recombinant N-terminal Huntingtin fragment recHTT610 (human) (UniProt P42858); assay: recHTT610 capture ELISA

| binding [1] | binding [2] | binding [3] | binding [4] | binding [5] | binding [6] | binding [7] | Binder |
| --- | --- | --- | --- | --- | --- | --- | --- |
| binds | binds | binds | binds |  |  |  | monoclonal antibody C6-17 (antibody, V domains shown) VH: EVQLQQSGPELVKPGASVKISCKTSGYTFTEYTMHWVKQSHGKSLEWIGGINPNNGGTRYNQKFKGKATLTVDRSSSTAYMELRSLTSEDSAVYYCASLDGRDYWGQGTTLTVSS VL: DIVMSQSPSSLAVSAGEKVTMSCKSSQSLLNSRTRKNYLAWYQQKPGQSPKLLIYWASTRESGVPDRFTGSGSGTDFTLTISSVQAEDLAVYSCKQSYNLLTFGAGTKLELKR |
|  |  |  |  | binds |  |  | C6-17 FAB (Fab, V domains shown) VH: EVQLQQSGPELVKPGASVKISCKTSGYTFTEYTMHWVKQSHGKSLEWIGGINPNNGGTRYNQKFKGKATLTVDRSSSTAYMELRSLTSEDSAVYYCASLDGRDYWGQGTTLTVSS VL: DIVMSQSPSSLAVSAGEKVTMSCKSSQSLLNSRTRKNYLAWYQQKPGQSPKLLIYWASTRESGVPDRFTGSGSGTDFTLTISSVQAEDLAVYSCKQSYNLLTFGAGTKLELKR |
| binds |  | binds | binds |  | binds | binds | monoclonal antibody PRR13 (antibody, V domains shown) VH: EVQLQQSAPELVKPGASVKMSCKASGYSFTDFYMKWVKQSHGKGLEWIGDIDPKNGDTFYNQKFKGRATLTVDKSSSTAYMQLNSLTTEDSAVYYCATYYGYTMDYWGQGTSVTVSS VL: QIVLTQSPAIMSASLGERVTMTCTASSSVTSSYLHWYQQKPGSSPKLWIYSTSNLASGVPARFSGSGSGTSYSLTISSMEAEDAATYYCHQYRRPPRTFGGGTKLEIKR |
|  |  |  |  | binds |  |  | PRR13 FAB (Fab, V domains shown) VH: EVQLQQSAPELVKPGASVKMSCKASGYSFTDFYMKWVKQSHGKGLEWIGDIDPKNGDTFYNQKFKGRATLTVDKSSSTAYMQLNSLTTEDSAVYYCATYYGYTMDYWGQGTSVTVSS VL: QIVLTQSPAIMSASLGERVTMTCTASSSVTSSYLHWYQQKPGSSPKLWIYSTSNLASGVPARFSGSGSGTSYSLTISSMEAEDAATYYCHQYRRPPRTFGGGTKLEIKR |
